Source: PubChem BioAssay AID1159578 (Peter MacCallum Cancer Centre, 2015)

Aim: 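siRNA pools altering how lymphatic endothelial cells close a scratch wound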 (primary screen)
Cells: human lymphatic endothelial cells
Reagent: siRNA pool against human genes, 40 nM
Time to read-out: 48 h after transfection
Detection: 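High-content imaging of dye-stained cells in a scratch assay measures filled wound area and nuclei per well; duplicate means given as ratio to mock and robust z-score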
Direction: migration robust z-score: higher = faster migration into the scratch; nuclei per well: higher = more cells in the well
Call rule: 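Pools averaging fewer than 3300 nuclei are never called; remaining pools count as changed when migration robust z lies outside -2 to 2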
Meaning of the calls: active = migration changed; inactive = no migration change, or too few cells
Shown is an unselected part of about 18,000 deposited reagents. About 1,030 of them (5.7%) were called active. 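Inactive calls also include pools with fewer than 3300 nuclei, whose migration was not assessed.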 The raw values are shown without normalisation. Not all columns of the deposit are shown.

WDR26 (WD repeat domain 26) → migration robust z-score: 0.49; migration class with cell-count check: migration z between -2 and 2; enough cells; nuclei per well, duplicate mean: 7428; call: inactive
TARDBP (TAR DNA binding protein) → migration robust z-score: -1.4; migration class with cell-count check: migration z between -2 and 2; enough cells; nuclei per well, duplicate mean: 5107; call: inactive
FGR (FGR proto-oncogene, Src family tyrosine kinase) → migration robust z-score: -1.82; migration class with cell-count check: migration z between -2 and 2; enough cells; nuclei per well, duplicate mean: 3552; call: inactive
RAPSN (receptor associated protein of the synapse) → migration robust z-score: 0.11; migration class with cell-count check: migration z between -2 and 2; enough cells; nuclei per well, duplicate mean: 5856; call: inactive
ASB13 (ankyrin repeat and SOCS box containing 13) → migration robust z-score: -1.82; migration class with cell-count check: migration z between -2 and 2; enough cells; nuclei per well, duplicate mean: 5817; call: inactive
EAF1 (ELL associated factor 1) → migration robust z-score: -0.36; migration class with cell-count check: migration z between -2 and 2; enough cells; nuclei per well, duplicate mean: 3717; call: inactive
SLC25A31 → migration robust z-score: 2.06; migration class with cell-count check: migration z above 2; enough cells; nuclei per well, duplicate mean: 6398; call: active
SNTB1 (syntrophin beta 1) → migration robust z-score: -0.68; migration class with cell-count check: migration z between -2 and 2; enough cells; nuclei per well, duplicate mean: 5006; call: inactive
RAB3A (RAB3A, member RAS oncogene family) → migration robust z-score: 0.08; migration class with cell-count check: migration z between -2 and 2; enough cells; nuclei per well, duplicate mean: 5638; call: inactive
CHD8 (chromodomain helicase DNA binding protein 8) → migration robust z-score: 0.42; migration class with cell-count check: migration z between -2 and 2; enough cells; nuclei per well, duplicate mean: 4418; call: inactive
TMEM161B (transmembrane protein 161B) → migration robust z-score: -0.73; migration class with cell-count check: migration z between -2 and 2; enough cells; nuclei per well, duplicate mean: 6436; call: inactive
SELENOI (selenoprotein I) → migration robust z-score: -1.73; migration class with cell-count check: migration z between -2 and 2; enough cells; nuclei per well, duplicate mean: 5900; call: inactive
C14orf181 (retired record) → migration robust z-score: 0.53; migration class with cell-count check: migration z between -2 and 2; enough cells; nuclei per well, duplicate mean: 4790; call: inactive
HACD3 (3-hydroxyacyl-CoA dehydratase 3) → migration robust z-score: 0.32; migration class with cell-count check: migration z between -2 and 2; enough cells; nuclei per well, duplicate mean: 6214; call: inactive

Sorted by “nuclei per well, duplicate mean” (highest first): some entries from above.
RAPSN (receptor associated protein of the synapse) → migration robust z-score: 0.11; migration class with cell-count check: migration z between -2 and 2; enough cells; nuclei per well, duplicate mean: 5856; call: inactive
FGR (FGR proto-oncogene, Src family tyrosine kinase) → migration robust z-score: -1.82; migration class with cell-count check: migration z between -2 and 2; enough cells; nuclei per well, duplicate mean: 3552; call: inactive
